Test results published in US20090247540A1 (published 2009).
These are yes or no findings as the source states them, for the method shown. Some entries that bind do so weakly or less than the wild type. For part of these data: Where a sequence is shown, tags or fusion partners need not be part of it.

Chains of the proteins cited; added tags and fusions are not shown. Residues count along the entry.
UniProt P29317, residues 24-976: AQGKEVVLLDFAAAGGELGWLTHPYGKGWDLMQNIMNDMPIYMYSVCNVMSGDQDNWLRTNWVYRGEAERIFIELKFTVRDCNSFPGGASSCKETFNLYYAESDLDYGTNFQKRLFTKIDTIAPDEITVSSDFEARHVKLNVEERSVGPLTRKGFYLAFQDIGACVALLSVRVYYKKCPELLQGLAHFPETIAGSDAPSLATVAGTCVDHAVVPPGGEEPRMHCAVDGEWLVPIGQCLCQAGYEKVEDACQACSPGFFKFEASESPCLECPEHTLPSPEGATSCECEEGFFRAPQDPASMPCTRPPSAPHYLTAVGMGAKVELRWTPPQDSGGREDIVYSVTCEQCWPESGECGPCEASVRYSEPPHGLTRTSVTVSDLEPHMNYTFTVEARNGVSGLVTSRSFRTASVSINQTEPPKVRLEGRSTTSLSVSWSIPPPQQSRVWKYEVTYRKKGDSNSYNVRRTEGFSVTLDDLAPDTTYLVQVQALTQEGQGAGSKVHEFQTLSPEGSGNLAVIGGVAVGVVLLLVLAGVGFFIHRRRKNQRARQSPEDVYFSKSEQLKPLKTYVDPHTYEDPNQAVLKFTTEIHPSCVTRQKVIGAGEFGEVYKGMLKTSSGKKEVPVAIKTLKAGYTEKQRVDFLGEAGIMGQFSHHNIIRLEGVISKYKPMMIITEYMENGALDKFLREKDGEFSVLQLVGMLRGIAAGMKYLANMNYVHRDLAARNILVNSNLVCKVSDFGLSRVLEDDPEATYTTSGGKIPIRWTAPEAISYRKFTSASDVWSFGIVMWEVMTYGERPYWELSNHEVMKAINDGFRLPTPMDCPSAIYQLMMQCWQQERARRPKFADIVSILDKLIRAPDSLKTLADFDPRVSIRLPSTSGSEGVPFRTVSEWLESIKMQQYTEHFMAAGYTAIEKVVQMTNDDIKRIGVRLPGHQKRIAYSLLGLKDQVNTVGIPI

How the values were obtained:
[1] = molecular target: EphA2-Fc (EphA2 extracellular domain fused to the heavy chain of human IgG1) (human) (UniProt P29317); assay: phage binding to immobilised EphA2-Fc
[2] = molecular target: EphA2-Fc (EphA2 extracellular domain fused to the heavy chain of human IgG1) (human) (UniProt P29317); assay: phage display biopanning on recombinant EphA2-Fc coated on 96-well plates
[3] = molecular target: EphA2-Fc (EphA2 extracellular domain fused to the heavy chain of human IgG1) (human) (UniProt P29317); assay: phage display biopanning on coated EphA2-Fc
[4] = molecular target: EphA2 receptor of human cancer cells (PC-3, DU-145, lung cancer lines) (human) (UniProt P29317); assay: precipitation from lysates of 125I-labelled PC3 cells
[5] = molecular target: EphA2 receptor of human cancer cells (PC-3, DU-145, lung cancer lines) (human) (UniProt P29317); assay: precipitation from PC3 cell lysates with EP1-Fc, anti-EphA2 blot

Row | Binder | binding [2] | binding [3] | further results
1 | RRCVWSTNVYSMEPALFCAA (peptide, not shown: large carriers) [M13 phage displaying EP1 peptide] | – | – | binding [1]: binds
2 | YSCCLNLYTPWPLCDCVEEWA [EP2] | binds | – | –
3 | HSCKALSSTHGMAWPESAL [EP3] | binds | – | –
4 | RRCVWSTNVYSMEPALFCAA [EP1 peptide] | – | binds | –
5 | RRCVWSTNVYSMEPALFCAA [EP1] | binds | – | –
6 | HSCKALSSTHGMAWPESAL [EP3 peptide] | – | binds | –
7 | YSCCLNLYTPWPLCDCVEEWA [EP2 peptide] | – | binds | –
8 | RRCVWSTNVYSMEPALFCAA (Fc fusion, not shown: a dimerising Fc or GST) [EP1-Fc fusion protein] | – | – | binding [4]: binds; binding [5]: binds
